Data as given in PubChem BioAssay (EPA / NIEHS).
Values joined by “and” are separate entries in the source; they are usually repeats but may differ in a detail not shown here. Equal values may be shown once. Inconclusive means that the source gave no clear call. Such entries were picked first, then a sample of the others. Where the call is inconclusive, the potency comes from a doubtful curve fit. Some compounds were tested as several samples or in several runs, with calls that do not always agree. Active and inactive are the calls of the source. The calls were made as follows: active = hit-call score of the fitted dose curve at least 0.9, where 1 is the maximum; inconclusive = response in the unintended direction; inactive = score below 0.9.

Chains of the proteins cited; added tags and fusions are not shown.
UniProt P04637, whole entry, looked up: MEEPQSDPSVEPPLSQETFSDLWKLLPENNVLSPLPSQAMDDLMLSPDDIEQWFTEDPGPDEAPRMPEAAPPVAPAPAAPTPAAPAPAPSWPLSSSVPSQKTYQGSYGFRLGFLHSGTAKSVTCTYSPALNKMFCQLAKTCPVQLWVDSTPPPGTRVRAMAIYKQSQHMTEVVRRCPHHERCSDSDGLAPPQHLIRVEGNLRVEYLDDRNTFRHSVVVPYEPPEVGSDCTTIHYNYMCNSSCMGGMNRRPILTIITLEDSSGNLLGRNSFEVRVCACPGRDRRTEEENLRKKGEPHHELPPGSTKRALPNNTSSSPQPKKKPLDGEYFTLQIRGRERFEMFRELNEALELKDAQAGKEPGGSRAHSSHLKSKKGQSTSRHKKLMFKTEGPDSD

Molecular target: Cellular tumor antigen p53 (Homo sapiens) (UniProt P04637)
Experiment: TOX21_p53_BLA_p4_ratio: Tox21 HCT-116 p53 Agonism Beta-lactamase Assay, Ratio, Phase 4 (AID 2283601)
Method in brief: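 Signal is the blue/green (460nm/530nm) ratio of cleaved versus uncleaved CCF4-AM substrate, read after 2 h substrate loading. Cells were HCT116 carrying the p53-responsive beta-lactamase reporter, dosed 16 h at 37C, 5% CO2; CellTiter-Glo measured in parallel.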

SMILES	outcome	AC50
Cc1ccc([N+](=O)[O-])c(C)c1	inactive	–
CC[C@H](C)[C@@H](C(=O)O)n1sc2ccccc2c1=O	–	inconclusive: 86.9 µM
O=P(OC(CCl)CCl)(OC(CCl)CCl)OC(CCl)CCl	inactive	–
CC(=O)S[C@@H]1CC2=CC(=O)CC[C@]2(C)[C@H]2CC[C@@]3(C)[C@@H](CC[C@@]34CCC(=O)O4)[C@H]12	inactive	–
CC(C)c1ccc(O)c(C(C)C)c1	–	active: 81 µM
CCCCC(CC)COC(=O)/C=C/c1ccc(OC)cc1 (centres undefined)	–	inconclusive: 46.1 µM
CC(C)CCCCCCc1ccc(O)cc1	–	active: 46.2 µM and active: 41.7 µM
CCCCc1ccc2c(n1)[C@@H](c1ccc(OC)cc1C[C@H](C)C(=O)O)[C@H](C(=O)O)[C@H]2c1ccc2c(c1)OCO2	–	inconclusive: 46.1 µM
c1ccc(Cc2ccccc2)cc1	–	inconclusive: 46.1 µM
O=C(O)c1cccc(Oc2ccccc2)c1	inactive	–

System: not listed separately
Experiment: Tanguay_ZF_120hpf_AXIS_legacy: (Legacy) Oregon State University Tanguay Lab 120 Hour Post-fertilization zebrafish Assay for Body Axis Malformation (AID 2283635);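 as to AC50: potency for an increased fraction of larvae scored with body axis malformation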
Method in brief: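 Chorion is removed with pronase at 4 hpf, then single 6 hpf embryos are dosed (final DMSO 0.64%) and held statically at 28C in sealed, foil-covered plates. At 120 hpf body axis malformation is recorded as present or absent.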

SMILES	outcome	AC50
c1ccc2occc2c1	inactive	–
O=C(O)Cn1c(=O)n(Cc2ccc(Br)cc2F)c(=O)c2ccc(Cl)cc21	inactive	–
O=C(O)c1cccc(Oc2ccccc2)c1	–	inconclusive: 59.2 µM

System: not listed separately
Experiment: Tanguay_ZF_120hpf_EYE_legacy: (Legacy) Oregon State University Tanguay Lab 120 Hour Post-fertilization zebrafish Assay for Eye Malformation (AID 2283636)
Method in brief: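 Read-out is binary presence or absence of eye malformation, scored by brightfield microscopy at 120 hpf. Single larvae were exposed from 6 hpf in embryo medium containing 0.64% DMSO, with DMSO as baseline.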

SMILES	AC50	outcome
O=P(OC(CCl)CCl)(OC(CCl)CCl)OC(CCl)CCl	active: 36.7 µM	–
Cc1ccc(C(C)C)cc1	inconclusive: 31.8 µM	–
CNC(=O)[C@H]1O[C@@H](n2cnc3c(NCc4cc(Cl)ccc4OCc4cc(C)no4)ncnc32)[C@H](O)[C@@H]1N	inconclusive: 162 µM	–
COC(=O)c1ccc(C(=O)OC)cc1	active: 34 µM	–
CSc1ccc(Oc2ccc(S(N)(=O)=O)cc2CN(C)C)cc1C	–	inactive
CCc1c(C(=O)NN2CCCCC2)nn(-c2ccc(Cl)cc2Cl)c1-c1ccc(Br)cc1	–	inactive
CCCCc1ccc2c(n1)[C@@H](c1ccc(OC)cc1C[C@H](C)C(=O)O)[C@H](C(=O)O)[C@H]2c1ccc2c(c1)OCO2	–	inactive

Complete entries, quoted from the list. Values in the order: AC50 | outcome
Cc1ccc(C(C)C)cc1 is listed with inconclusive: 31.8 µM | –
CSc1ccc(Oc2ccc(S(N)(=O)=O)cc2CN(C)C)cc1C is listed with – | inactive

System: not listed separately
Experiment: Tanguay_ZF_120hpf_SNOU_legacy: (Legacy) Oregon State University Tanguay Lab 120 Hour Post-fertilization zebrafish Assay for Snout Malformation (AID 2283637)
Method in brief: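 Snout malformation read as a yes/no call on brightfield images of 120 hpf larvae (Tropical 5D strain). Static exposure began at 6 hpf on dechorionated embryos in 0.64% DMSO, with gain of signal analysed versus DMSO controls.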

SMILES	outcome	AC50
Cc1ccc(C(C)C)cc1	inactive	–
CC(=O)S[C@@H]1CC2=CC(=O)CC[C@]2(C)[C@H]2CC[C@@]3(C)[C@@H](CC[C@@]34CCC(=O)O4)[C@H]12	inactive	–
c1ccc2occc2c1	–	inconclusive: 39.5 µM
CCc1c(C(=O)NN2CCCCC2)nn(-c2ccc(Cl)cc2Cl)c1-c1ccc(Br)cc1	inactive	–
